# Measurements published in the supplement of paper PMC4635364.
# Structures can show the parent of a compound that is named as a salt. The list shows a part of the results. Repeats in this data set agree poorly, so a single value says little.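 Cells: ReNCell VM human fetal ventral-midbrain neural progenitors, differentiated mitogen-free. Blinded raters compared doublecortin-stained (early neurons) or tyrosine hydroxylase-stained (dopaminergic neurons) images with untreated wells, where 0 means no change. After repeats and both raters were averaged, compounds scoring 2 or above became hits for retesting.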
# Assays:
# ReNCell VM [1] = assay: neuronal differentiation score (DCX+ cell fraction vs untreated, manual image score) (score (-3 to 3)); higher = more neuronal differentiation; settings: 2 uM, 2 weeks
# ReNCell VM [2] = assay: dopaminergic neuron differentiation score (TH+ cell fraction vs untreated, manual image score) (score (0 to 3)); higher = more TH+ dopaminergic neuron differentiation; settings: 2 uM, 4 weeks, BDNF 10 ng/ml + GDNF 10 ng/ml
smiles,measurement,setting,value
Cc1cc(SCc2sc(-c3ccc(C(F)(F)F)c(F)c3)nc2C)ccc1OCC(=O)O,neuronal differentiation score,ReNCell VM [1]; library: Tocriscreen,inactive: 0
same,dopaminergic neuron differentiation score,ReNCell VM [2]; library: Tocriscreen,inactive: 0
COc1ccc(CCN2CCC(Nc3nc4ccccc4n3Cc3ccc(F)cc3)CC2)cc1,neuronal differentiation score,ReNCell VM [1]; library: Spectrum,inactive: 0
same,dopaminergic neuron differentiation score,ReNCell VM [2]; library: Spectrum,inactive: 0
Cc1ccc(O)cc1.Cc1cccc(O)c1.Cc1ccccc1O,neuronal differentiation score,ReNCell VM [1]; library: Spectrum,inactive: 0
same,dopaminergic neuron differentiation score,ReNCell VM [2]; library: Spectrum,inactive: 0
CC1=CCCC2C1(C)CCC(C)C2(C)CC/C(C)=C/Cn1c[n+](C)c2c(N)ncnc21 (configuration not stated) [AGELASINE (stereochemistry of diterpene unknown)],neuronal differentiation score,ReNCell VM [1]; library: Spectrum,inactive: 0
same,dopaminergic neuron differentiation score,ReNCell VM [2]; library: Spectrum,inactive: 0
C[C@@]12N[C@@H](Cc3ccccc31)c1ccccc12 [(-)-MK 801 maleate],neuronal differentiation score,ReNCell VM [1]; library: Tocriscreen,inactive: 0
same,dopaminergic neuron differentiation score,ReNCell VM [2]; library: Tocriscreen,inactive: 0
C[C@H](N)CN1CCc2ccc(Br)cc21 [VER-3323 hemifumarate salt],neuronal differentiation score,ReNCell VM [1]; library: LOPAC,inactive: 0
same,dopaminergic neuron differentiation score,ReNCell VM [2]; library: LOPAC,inactive: 0
C[C@@H]1O[C@@H](O[C@H]2C[C@@H](O)[C@]3(CO)[C@H]4[C@H](O)C[C@]5(C)[C@@H](C6=CC(=O)OC6)CC[C@]5(O)[C@@H]4CC[C@]3(O)C2)[C@H](O)[C@H](O)[C@H]1O,neuronal differentiation score,ReNCell VM [1]; library: Spectrum,inactive: 0
same,dopaminergic neuron differentiation score,ReNCell VM [2]; library: Spectrum,inactive: 0
CCN(CC)CCO[C@H]1CC[C@@]2(C)C(=CC[C@@H]3[C@@H]2CC[C@]2(C)C(=O)CC[C@@H]32)C1,neuronal differentiation score,ReNCell VM [1]; library: Tocriscreen,inactive: 0
same,dopaminergic neuron differentiation score,ReNCell VM [2]; library: Tocriscreen,inactive: 0
c1cncc(C2=NCCC2)c1 [Myosmine],neuronal differentiation score,ReNCell VM [1]; library: Phytochemical,inactive: 0
same,dopaminergic neuron differentiation score,ReNCell VM [2]; library: Phytochemical,inactive: 0
COC(=O)[C@]1(C)CC[C@]2(C)CC[C@]3(C)C4=CC=C5C(=CC(=O)C(O)=C5C)[C@]4(C)CC[C@@]3(C)[C@@H]2C1,neuronal differentiation score,ReNCell VM [1]; library: Spectrum,inactive: 0
same,dopaminergic neuron differentiation score,ReNCell VM [2]; library: Spectrum,inactive: 0
CCOP(=S)(OCC)Oc1ccc2c(C)c(Cl)c(=O)oc2c1,neuronal differentiation score,ReNCell VM [1]; library: Spectrum,inactive: 0
same,dopaminergic neuron differentiation score,ReNCell VM [2]; library: Spectrum,inactive: 0
CC(C)C[C@@H](N)C1(c2ccc(Cl)cc2)CCC1,neuronal differentiation score,ReNCell VM [1]; library: Tocriscreen,inactive: 0
same,dopaminergic neuron differentiation score,ReNCell VM [2]; library: Tocriscreen,inactive: 0
"O=[N+]([O-])c1cc(O)c(O)c([N+](=O)[O-])c1 [3,5-Dinitrocatechol]",neuronal differentiation score,ReNCell VM [1]; library: LOPAC,inactive: 0
same,dopaminergic neuron differentiation score,ReNCell VM [2]; library: LOPAC,inactive: 0
Cc1ccc(/N=C/N(C)/C=N/c2ccc(C)cc2C)c(C)c1,neuronal differentiation score,ReNCell VM [1]; library: Spectrum,inactive: 0
same,dopaminergic neuron differentiation score,ReNCell VM [2]; library: Spectrum,inactive: 1
NC(=O)C[S@@+]([O-])C(c1ccccc1)c1ccccc1,neuronal differentiation score,ReNCell VM [1]; library: Spectrum,inactive: -1
same,dopaminergic neuron differentiation score,ReNCell VM [2]; library: Spectrum,inactive: 0
"C[C@]12CC[C@@H](O)C[C@@H]1CC[C@@H]1[C@@H]2CC[C@]2(C)[C@@H](C(=O)CO)CC[C@@H]12 [3-alpha,21-Dihydroxy-5-alpha-pregnan-20-one]",neuronal differentiation score,ReNCell VM [1]; library: LOPAC,inactive: 0
same,dopaminergic neuron differentiation score,ReNCell VM [2]; library: LOPAC,inactive: 0
O=C1C=C2C=C[C@@H]3C[C@@]2(O1)[C@H]1CCCCN31 [Securinine],neuronal differentiation score,ReNCell VM [1]; library: Phytochemical,inactive: 0
same,dopaminergic neuron differentiation score,ReNCell VM [2]; library: Phytochemical,inactive: 0
O=[N+]([O-])C(Br)(CO)CO,neuronal differentiation score,ReNCell VM [1]; library: Spectrum,inactive: 0
same,dopaminergic neuron differentiation score,ReNCell VM [2]; library: Spectrum,inactive: 0
NC(=O)CN1CC(O)CC1=O (configuration not stated) [Oxiracetam],neuronal differentiation score,ReNCell VM [1]; library: LOPAC,inactive: 0
same,dopaminergic neuron differentiation score,ReNCell VM [2]; library: LOPAC,inactive: 0
CC(CC(C(N)=O)(c1ccccc1)c1ccccc1)N(C)C (configuration not stated),neuronal differentiation score,ReNCell VM [1]; library: Spectrum,inactive: 1
same,dopaminergic neuron differentiation score,ReNCell VM [2]; library: Spectrum,inactive: 0
CCCn1c(C)c(C(=O)c2cccc3ccccc23)c2ccccc21,neuronal differentiation score,ReNCell VM [1]; library: LOPAC,inactive: 0
same,dopaminergic neuron differentiation score,ReNCell VM [2]; library: LOPAC,inactive: 1
NC(=O)c1ccc(N)nc1,neuronal differentiation score,ReNCell VM [1]; library: Spectrum,inactive: 0
same,dopaminergic neuron differentiation score,ReNCell VM [2]; library: Spectrum,inactive: 0
COC1=C[C@@H]2[C@@H]3Cc4ccc(OC)c(O)c4[C@]2(CCN3C)CC1=O [sinomenine],neuronal differentiation score,ReNCell VM [1]; library: Natural,inactive: 0
same,dopaminergic neuron differentiation score,ReNCell VM [2]; library: Natural,inactive: 0
C[C@]12CC[C@H](O)C[C@@H]1CC[C@@H]1[C@@H]2CC[C@]2(C)C(=O)CC[C@@H]12 [Epiandrosterone],neuronal differentiation score,ReNCell VM [1]; library: Prestwick,inactive: 0
same,dopaminergic neuron differentiation score,ReNCell VM [2]; library: Prestwick,inactive: 0
CNCC(=O)c1ccc(O)c(O)c1,neuronal differentiation score,ReNCell VM [1]; library: Spectrum,inactive: 0
same,dopaminergic neuron differentiation score,ReNCell VM [2]; library: Spectrum,inactive: 0
CC(=O)O[C@H]1C[C@H](O[C@H]2[C@@H](O)C[C@H](O[C@H]3[C@@H](O)C[C@H](O[C@H]4CC[C@@]5(C)[C@H](CC[C@@H]6[C@@H]5C[C@@H](O)[C@]5(C)[C@@H](C7=CC(=O)OC7)CC[C@]65O)C4)O[C@@H]3C)O[C@@H]2C)O[C@H](C)[C@H]1O[C@@H]1O[C@H](CO)[C@@H](O)[C@H](O)[C@H]1O,neuronal differentiation score,ReNCell VM [1]; library: Spectrum,inactive: 0
same,dopaminergic neuron differentiation score,ReNCell VM [2]; library: Spectrum,inactive: 0

# Reprinted from the entries so far (two entries):
smiles,measurement,setting,value
NC(=O)CN1CC(O)CC1=O (configuration not stated) [Oxiracetam],dopaminergic neuron differentiation score,ReNCell VM [2]; library: LOPAC,inactive: 0
CC(CC(C(N)=O)(c1ccccc1)c1ccccc1)N(C)C (configuration not stated),neuronal differentiation score,ReNCell VM [1]; library: Spectrum,inactive: 1
